Patent US20230365651A1

Tests used:
HLA-B*44:02 (human) = assay: UV peptide exchange, anti-b2m ELISA
HLA-A*03:01 (human) = assay: UV peptide exchange, anti-b2m ELISA

Row | binding (HLA-B*44:02 (human)) | binding (HLA-A*03:01 (human)) | Binder
1 | binds | – | TEAVVTNEL [… (SEQ ID NO: 437)]
2 | – | binds | RLFTSPIMTK [… (SEQ ID NO: 100)]
3 | – | binds | SVSSETTKIKR [… (SEQ ID NO: 279)]
4 | – | binds | SAAPPSYFR [… (SEQ ID NO: 110)]
5 | binds | – | REEDAALFKAW [… (SEQ ID NO: 415)]
6 | – | binds | STTFPTLTK [… (SEQ ID NO: 275)]
7 | – | binds | RVFTSSIKTK [… (SEQ ID NO: 101)]
8 | – | binds | TVAPPQGVVK [… (SEQ ID NO: 286)]
9 | – | binds | RMASPVNVK [… (SEQ ID NO: 20)]
10 | binds | – | SETTFSLIF [… (SEQ ID NO: 422)]
11 | – | binds | RLKGDAWVYK [… (SEQ ID NO: 269)]
12 | – | binds | GAYAHTVNR [… (SEQ ID NO: 258)]
13 | binds | – | IEALSGKIEL [… (SEQ ID NO: 413)]
14 | – | binds | VLADSVTTK [… (SEQ ID NO: 104)]
15 | – | binds | RRIHTGEKPYK [… (SEQ ID NO: 287)]
16 | – | binds | KTFTIKRFLAK [… (SEQ ID NO: 109)]
17 | binds | – | FESHSTVSA [… (SEQ ID NO: 420)]
18 | – | binds | TTALKTTSR [… (SEQ ID NO: 277)]
19 | – | binds | RTEEVLLTFK [… (SEQ ID NO: 256)]
20 | binds | – | SEDPSKLEA [… (SEQ ID NO: 410)]
21 | – | binds | RAKELEATF [… (SEQ ID NO: 281)]

Row | binding (HLA-B*44:02 (human)) | binding (HLA-A*03:01 (human)) | Binder
22 | binds | – | LELPPILVY [… (SEQ ID NO: 411)]
23 | binds | – | NEIWTHSY [NEIWTHSY (SEQ ID NO: 405)]
24 | binds | – | TEFPLFSAA [… (SEQ ID NO: 424)]
25 | binds | – | SEVPLPMAI [… (SEQ ID NO: 425)]
26 | – | binds | AVRKPIVLK [… (SEQ ID NO: 21)]
27 | – | binds | SVLTSSLVK [… (SEQ ID NO: 102)]
28 | – | binds | HTFGLFYQR [… (SEQ ID NO: 261)]
29 | binds | – | SEEETRVVF [… (SEQ ID NO: 416)]
30 | – | binds | IVQEPTEEK [… (SEQ ID NO: 283)]
31 | binds | – | AEHFSMIRA [… (SEQ ID NO: 417)]
32 | binds | – | EEAQWVRKY [… (SEQ ID NO: 403)]
33 | – | binds | ISYSGQFLVK [… (SEQ ID NO: 266)]
34 | binds | – | AEQDPDELNKA [… (SEQ ID NO: 431)]
35 | binds | – | KEAIREHQM [… (SEQ ID NO: 434)]
36 | – | binds | SVSGVKTTF [… (SEQ ID NO: 280)]
37 | binds | – | HESSSHHDL [… (SEQ ID NO: 427)]
38 | binds | – | SEVDSPNVL [… (SEQ ID NO: 438)]
39 | binds | – | AEHEGVSVL [… (SEQ ID NO: 407)]
40 | binds | – | REPGDIFSEL [… (SEQ ID NO: 436)]
41 | – | binds | QIHDHVNPK [… (SEQ ID NO: 265)]
42 | – | binds | GTNTVILEY [… (SEQ ID NO: 260)]

Second part, the binder before the results:

Row | Binder | binding (HLA-B*44:02 (human)) | binding (HLA-A*03:01 (human))
43 | REEFVSIDHL [… (SEQ ID NO: 435)] | binds | –
44 | RLFSWLVNR [… (SEQ ID NO: 105)] | – | binds
45 | SSSSATISK [… (SEQ ID NO: 263)] | – | binds
46 | NEAIMHQY [NEAIMHQY (SEQ ID NO: 404)] | binds | –
47 | RMFADDLHNLNK [… (SEQ ID NO: 271)] | – | binds
48 | KSLIKSWKK [… (SEQ ID NO: 284)] | – | binds
49 | AIKVIPTVFK [… (SEQ ID NO: 264)] | – | binds
50 | GTVNPTVGK [… (SEQ ID NO: 285)] | – | binds
51 | NLSSITHER [… (SEQ ID NO: 278)] | – | binds
52 | PEKTTHSF [PEKTTHSF (SEQ ID NO: 426)] | binds | –
53 | VTADHSHVF [… (SEQ ID NO: 257)] | – | binds
54 | REKFIASVI [… (SEQ ID NO: 429)] | binds | –
55 | SLKERNPLK [… (SEQ ID NO: 22)] | – | binds
56 | VTDLISPRK [… (SEQ ID NO: 267)] | – | binds
57 | EDGRLVIEF [… (SEQ ID NO: 406)] | binds | –
58 | SEVPTGTTA [… (SEQ ID NO: 423)] | binds | –
59 | KTFPASTVF [… (SEQ ID NO: 274)] | – | binds

Row | Binder | binding (HLA-B*44:02 (human)) | binding (HLA-A*03:01 (human))
60 | FEDAQGHIW [… (SEQ ID NO: 418)] | binds | –
61 | AAFVPLLLK [… (SEQ ID NO: 106)] | – | binds
62 | GMMKGGIRK [… (SEQ ID NO: 23)] | – | binds
63 | VSKTTGMEF [… (SEQ ID NO: 276)] | – | binds
64 | RSRLNPLVQR [… (SEQ ID NO: 262)] | – | binds
65 | EDAALFKAW [… (SEQ ID NO: 414)] | binds | –
66 | KTLELRVAY [… (SEQ ID NO: 259)] | – | binds
67 | RQPERTILRPR [… (SEQ ID NO: 272)] | – | binds
68 | QEILTQVKQ [… (SEQ ID NO: 412)] | binds | –
69 | HEFGHVLGL [… (SEQ ID NO: 419)] | binds | –
70 | RLQEWKALK [… (SEQ ID NO: 107)] | – | binds
71 | REFVLSKGDAGL [… (SEQ ID NO: 409)] | binds | –
72 | AVFNPRFYRTY [… (SEQ ID NO: 270)] | – | binds
73 | RVNAIPFTY [… (SEQ ID NO: 273)] | – | binds
74 | LEKALQVF [LEKALQVF (SEQ ID NO: 408)] | binds | –
75 | GEPATTVSL [… (SEQ ID NO: 421)] | binds | –
76 | SDSQVRAF [SDSQVRAF (SEQ ID NO: 433)] | binds | –

Results are given in words; binding and its absence hold for the method and conditions named. Binding can be weak; no strength is given.
